Test results reported in patent US20220151236A1, “NOVEL OXADIAZOLE COMPOUNDS FOR CONTROLLING OR PREVENTING PHYTOPATHOGENIC FUNGI” (PI INDUSTRIES LTD., priority 2019, published 2022).
Some of these results come from one statement about several compounds together.

System: Corynespora cassiicola
Assay: Corynespora cassiicola (Leaf Spot of Tomato/Soybean): radial mycelial growth on potato dextrose agar
Format: cell-based
Settings: 300 ppm, 25° C., 70% relative humidity, seven days

| Compound | control (radial growth compared to the untreated check) |
| --- | --- |
| O=C(Nc1ccc(Cl)cc1)c1cn2cc(-c3noc(C(F)(F)F)n3)ccc2n1 [Compound 18, N-(4-chlorophenyl)-6-(5-(trifluoromethyl)-1,2,4-oxadiazol-3-yl)imidazo[1,2-a]pyridine-2-carboxamide] | ≥ 70% |
| FC(F)(F)c1nc(-c2ccn3cc(CSc4ccccc4)nc3c2)no1 [Compound 50, 3-(2-((phenylthio)methyl)imidazo[1,2-a]pyridin-7-yl)-5-(trifluoromethyl)-1,2,4-oxadiazole] | ≥ 70% |
| COc1ccc(SCc2cn3cc(-c4noc(C(F)(F)F)n4)ccc3n2)cc1 [Compound 100, 3-(2-(((4-methoxyphenyl)thio)methyl)imidazo[1,2-a]pyridin-6-yl)-5-(trifluoromethyl)-1,2,4-oxadiazole] | ≥ 70% |
| FC(F)(F)c1nc(-c2ccc3nc(CSc4cc(Cl)cc(Cl)c4)cn3c2)no1 [Compound 111, 3-(2-(((3,5-dichlorophenyl)thio)methyl)imidazo[1,2-a]pyridin-6-yl)-5-(trifluoromethyl)-1,2,4-oxadiazole] | ≥ 70% |
| O=S(=O)(Cc1cn2cc(-c3noc(C(F)(F)F)n3)ccc2n1)c1ccc(Cl)c(Cl)c1 [Compound 117, 3-(2-(((3,4-dichlorophenyl)sulfonyl)methyl)imidazo[1,2-a]pyridin-6-yl)-5-(trifluoromethyl)-1,2,4-oxadiazole] | ≥ 70% |
